Assay results: publication PMC9612826
Results are given in words; binding and its absence hold for the method and conditions named. In cells and extracts the contact can be indirect. For some assays here: Binding can be weak; no strength is given. For some assays here: Where a sequence is shown, tags or fusion partners need not be part of it. Each block holds one molecule with its values, some of them ahead of it.

Key:
[1] = target: T1, TEF-mCherry (Drosophila melanogaster) (UniProt Q7K4M4); experiment: co-IP; S2R+ cells transiently co-expressing the tagged proteins; cleared lysate (20 mM Tris-HCl pH 7.5, 300 mM NaCl, 2 mM MgCl2, 0.1% Nonidet P-40 Substitute, 5% glycerol, 0.5 mM EGTA, 1 mM DTT, Benzonase) on RFP-Trap agarose (anti-mCherry), 1 hour, 4°C; immunoblot
T1 sequence: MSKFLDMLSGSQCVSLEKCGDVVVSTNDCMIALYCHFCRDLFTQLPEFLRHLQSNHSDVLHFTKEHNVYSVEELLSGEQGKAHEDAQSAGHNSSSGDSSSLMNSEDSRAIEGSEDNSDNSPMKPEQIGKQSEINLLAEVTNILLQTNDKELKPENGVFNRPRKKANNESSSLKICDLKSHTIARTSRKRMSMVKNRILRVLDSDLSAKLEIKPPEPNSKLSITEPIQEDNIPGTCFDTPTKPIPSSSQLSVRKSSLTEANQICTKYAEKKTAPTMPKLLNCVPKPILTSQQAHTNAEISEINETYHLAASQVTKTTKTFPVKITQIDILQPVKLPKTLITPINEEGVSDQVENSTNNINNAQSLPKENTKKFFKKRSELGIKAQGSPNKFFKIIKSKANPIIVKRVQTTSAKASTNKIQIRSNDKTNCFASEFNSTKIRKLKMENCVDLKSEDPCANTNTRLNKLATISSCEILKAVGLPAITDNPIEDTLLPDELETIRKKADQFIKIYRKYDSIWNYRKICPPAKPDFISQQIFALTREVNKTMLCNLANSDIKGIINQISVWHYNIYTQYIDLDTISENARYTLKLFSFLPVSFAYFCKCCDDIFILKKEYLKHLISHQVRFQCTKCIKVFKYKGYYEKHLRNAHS

[2] = target: T2, TEF-EGFP (Drosophila melanogaster) (UniProt Q7K4M4); experiment: co-IP; S2R+ cells transiently co-expressing the tagged proteins; cleared lysate (20 mM Tris-HCl pH 7.5, 300 mM NaCl, 2 mM MgCl2, 0.1% Nonidet P-40 Substitute, 5% glycerol, 0.5 mM EGTA, 1 mM DTT, Benzonase) on GFP-Trap agarose (anti-EGFP), 1 hour, 4°C; immunoblot
T2 sequence: T1 sequence

[3] = target: T3, TEF_Na-EGFP (Drosophila melanogaster) (UniProt Q7K4M4); experiment: as above
T3 sequence: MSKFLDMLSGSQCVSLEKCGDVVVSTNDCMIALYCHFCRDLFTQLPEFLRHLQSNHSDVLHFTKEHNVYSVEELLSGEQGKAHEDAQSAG

[4] = target: MNM-mCherry (Drosophila melanogaster); experiment: co-IP; S2R+ cells transiently co-expressing the tagged proteins; cleared lysate (20 mM Tris-HCl pH 7.5, 300 mM NaCl, 2 mM MgCl2, 0.1% Nonidet P-40 Substitute, 5% glycerol, 0.5 mM EGTA, 1 mM DTT, Benzonase) on RFP-Trap agarose (anti-mCherry), 1 hour, 4°C; immunoblot
[5] = target: UNO-mCherry (Drosophila melanogaster); experiment: as above

Molecule: MNM-EGFP (Drosophila melanogaster)
binding [1]: binds

Molecule: Mod(mdg4)_P-mCherry (Drosophila melanogaster)
binding [2]: no binding

B1: TEF-EGFP (protein, UniProt Q7K4M4 1-649)
chain: T1 sequence
binding [4]: binds | binding [5]: no binding

Second part, the molecule after the results:

binding [2]: binds | binding [3]: binds
Molecule: MNM-mCherry (Drosophila melanogaster)

binding [2]: no binding
Molecule: Mod(mdg4)_C-mCherry (Drosophila melanogaster)

binding [1]: no binding
Molecule: SNM-EGFP (Drosophila melanogaster)
